Measured values taken from the supplement of paper PMC12764529.
± gives the half width of the 95% confidence interval. The two proteases of the assay disagree for many of these sequences.

What was measured:
[1] = folding stability dG unfold from chymotrypsin proteolysis; higher = more stable
Description: (§1)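 Folding stability of de novo designed mini-proteins (<80 aa, no Cys; designed by TrROS, TrMRF, ProteinMPNN and the joint model) was measured by cDNA display proteolysis with trypsin and chymotrypsin. Each protease was used at 11 concentrations in a threefold dilution series plus a no-protease condition. K50 was inferred by Bayesian fitting of sequencing counts, and dG unfold was derived against a sequence-predicted unfolded-state K50 (Tsuboyama et al. method). Sequences shown include variable-length N-terminal GS-type padding (SAGGSAGG...) inside a display construct carrying a PA tag. Rows were kept only if the AF2 dimer inter-PAE was >15, to exclude likely homo-oligomers.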

[2] = folding stability dG unfold (combined trypsin and chymotrypsin); higher = more stable
Description: as §1

| Sequence | folding stability dG unfold [1] [kcal/mol] | folding stability dG unfold [2] [kcal/mol] |
| --- | --- | --- |
| SGMETKTIEKTVTVPAGDPAALEAAAAAVKEEIEKELKEKGYEVLEVKVTATATPDDTVTVTVPITVKKKSA [r9_298_JUSTAS] | 1.3 ± 0.043 | 0.607 ± 0.28 |
| SAGGSMTARLVELVRPEDSDELVALVRGENGETYTVPASEIEEALSNGKELEVPLPNGEEVTLELSSAGGSA [r2_301_TrMRF] | 1.18 ± 0.051 | 0.536 ± 0.12 |
| SAGGSAGGSAGPPPYTLVATRTFPTAPVRVYRTADPSRLLVYFPPLGRRVEVPPDVPNLVSAGGSAGGSAGG [r11_1007_TrMRF] | 2.03 ± 0.088 | 0.702 ± 0.19 |
| SVVIPIKTDDPAALAEALAAVRAALEAARAAGLEVVPLPILLDDGKEIEFPVDPAAAEDAVLARLRAALESA [r9_127_JUSTAS] | 2.61 ± 0.034 | 2.19 ± 0.11 |
| SAGGSATLPPSFRPVEVEEKPTGGNESTEQRVVIERRRPDGTPVREELTATTTYDPSTGTTTTTVSSAGGSA [r15_1052_JUSTAS] | 1.5 ± 0.017 | 1.01 ± 0.08 |
| NGEPQKYDIPLWIEDPNGKPHLYRIKVEVRPNPDGNYRAKIELENPGDGKKEEIEMDAPGAPIKPGDWIRIS [r1_14_TrROS] | 1.05 ± 0.26 | 0.356 ± 0.29 |
| SAGGSAGGGLVVRSPEAVERLAARLEAEGYEVRVVPGFGERGPFYVVEVRPLPPAPPDPRLDDRSAGGSAGG [r6_181_TrMRF] | 2 ± 0.029 | 1.41 ± 0.085 |
| SAGGSAGGGAEDAPVLVLLVEAEIDPDRERHLHLKVELDGKLYDADALVFTTPDGKSVMLIVIGSAGGSAGG [r6_324_TrMRF] | 3.19 ± 0.068 | 2.71 ± 0.12 |
| SAGGGAGTATLTVPVTFELEFFDADGRPVGPARLTLTLRLTAPVPLPPVPPPRLDLVLPDRFNPADDLSAGG [r13_508_TrMRF] | 3.544 ± 0.026 | 2.99 ± 0.087 |
| SSPSAPPVVRTETTTSEVVEKPGGVREKVTTPVTTTTLPDGTVTTTENVTTTFPDGSTTTSTSTSTDPAASA [r9_1201_JUSTAS] | 2.03 ± 0.12 | 1.51 ± 0.11 |
| SAGKKTIIIKIPPNMTVEELKKALKNLKPNEKVTITVNGKKYTITVKDGKIKITFPENVKNMILIIEVKSAG [r5_373_TrROS_Hall] | 2.54 ± 0.057 | 2.4 ± 0.36 |
| SAGGITIRGMPWEWAEEIAKTLAQEGYRLKDVEVEEDPPDGYYSVTVQQRDPETGKPKKPVTISIPPSAGGS [r16_750_TrROS] | 0.0769 ± 0.44 | – |
| SAGGSAGGSAGGGMMPVYTTETIPVPPGVPPEVVKAQVEAVPGVSATFDPATGTLTVTKLSAGGSAGGSAGG [r7_762_JUSTAS] | 1.09 ± 0.034 | 0.644 ± 0.042 |
| SAGGSAGGSAGGSSSVSVDTDPETGLITVTTYSSSGGVTVTLYEKPPDGSLTPVSTTAVSAGGSAGGSAGGS [r4_106_JUSTAS] | 0.844 ± 0.07 | 1.01 ± 0.046 |
| SAGGTYTVEVTGSATFTLPDGSEVTVTGTATFTNDLAPDEEAVLADGSLIPASASAEELAQAALAAASAGGS [r16_440_TrMRF] | 2.97 ± 0.058 | 2.32 ± 0.25 |
| SAGGSMSLDPDPAVRADPAFAGATVRRTTEPTPSGEVRVVETPVAVPAPVLTPEARAAALAAAAANAASAGG [r19_313_JUSTAS] | 1.31 ± 0.033 | 0.8 ± 0.065 |
| SAMIVVPNPLSDTPIEIPVDPNASPEEARALIEANPLVPPENLEYAEEALRRYYALLADPALAAAAAAASAG [r14_732_JUSTAS] | 1.59 ± 0.091 | 0.96 ± 0.077 |
| SAGGGMLTELSTVSSSFDPATNRSVSESLVLDPEKGTIIRLKTVTDLAGPPTTTTSESVEPLEPGLVSAGGS [r16_207_JUSTAS] | 1.12 ± 0.015 | 0.625 ± 0.044 |
| SAGGSEAAPGEKVTITTVTSSVLKTYETPTGTLETESSTSVTTTTVTVPAAAAAAAGVRYSPDPLLSAGGSA [r2_495_JUSTAS] | -0.348 ± 0.14 | < -1 |
| SAGGMIKIEIEVLVSPELTEEEKEAIAKETAEKVVKEIAEKNPELKEKIDIKNIKVTITPVEESEELQSAGG [r13_128_JUSTAS] | 1.66 ± 0.23 | 1.21 ± 0.34 |
| SAGGSAGGSAGGMTSTTSGFTTVGETPVRVTPVTTTPPSGGALTSPQVTVLHPGSSPGLVSAGGSAGGSAGG [r11_121_JUSTAS] | 1.03 ± 0.011 | 0.675 ± 0.051 |
| SAGGSAGGSAGGMNPIVIKKTYPVKSGSFTVTLPEGVTPVSFEKDPNSDTITIEVLVEPSAGGSAGGSAGGS [r10_906_JUSTAS] | -0.713 ± 0.37 | – |
| SAGGSAGGSAGGLPPNPSYLLLPVDEGTTADEIREEVERLVEPDNVVVLTRPDGYALVFFSAGGSAGGSAGG [r7_273_TrMRF] | 1.59 ± 0.15 | 1 ± 0.17 |
| SAGGSAGGSGGTIKLPLYPPEGKEYKGTIPKEKLEAAIAKGEPIKVTLKTKGKEVKEYTIPIKSAGGSAGGS [r12_991_JUSTAS] | -0.582 ± 0.44 | -0.983 ± 0.48 |
| SAGGSAGGPLVLRIETPEDKVLVLVLPEEAEKLPPKELAEIAAKEFAALPGVKEVKVEIAPLPLSAGGSAGG [r6_710_TrMRF] | 1.11 ± 0.15 | – |
| SAGGSAGGSAGGTLELEVELADGLRARVRVELDEDGELRVEVEIEPLPAPPPVVVLLFPESAGGSAGGSAGG [r17_65_TrROS_Hall] | 1.26 ± 0.086 | 0.587 ± 0.19 |

Rewritten as tab-separated lines: entries from further up
Sequence	folding stability dG unfold [1] [kcal/mol]	folding stability dG unfold [2] [kcal/mol]
SAGGSATLPPSFRPVEVEEKPTGGNESTEQRVVIERRRPDGTPVREELTATTTYDPSTGTTTTTVSSAGGSA [r15_1052_JUSTAS]	1.5 ± 0.017	1.01 ± 0.08
SAGGSAGGGAEDAPVLVLLVEAEIDPDRERHLHLKVELDGKLYDADALVFTTPDGKSVMLIVIGSAGGSAGG [r6_324_TrMRF]	3.19 ± 0.068	2.71 ± 0.12
SAGGTYTVEVTGSATFTLPDGSEVTVTGTATFTNDLAPDEEAVLADGSLIPASASAEELAQAALAAASAGGS [r16_440_TrMRF]	2.97 ± 0.058	2.32 ± 0.25

(continued)

| Sequence | folding stability dG unfold [1] [kcal/mol] | folding stability dG unfold [2] [kcal/mol] |
| --- | --- | --- |
| SAGGSAGGSAGGPIEKALEFLAEHGGPVRVTLPDGRVAVIRVTRGDGALRVEIVPAEDLASAGGSAGGSAGG [r17_463_TrMRF] | 1.21 ± 0.04 | 0.647 ± 0.076 |
| SAGGSAGGSAGGMTVTELPNDTILVETDSPEEAEAIKAEFEKKGLPVEVFPENVIRVPKSAGGSAGGSAGGS [r10_1027_JUSTAS] | 1.24 ± 0.051 | 0.645 ± 0.1 |
| SAGGSAGGSAGGSPPPGAAPPPLKLEVELVRVDRVELEERDGELSLHVESAEVLVVRLLSAGGSAGGSAGGS [r4_394_TrROS_Hall] | 3.17 ± 0.085 | 2.61 ± 0.11 |
| SAGGSAGGNDEDLPRPPSWVTVETETKKKVFNEDGTFLGDATVKSTVVTDPATGTTLATTEFLPSAGGSAGG [r6_962_JUSTAS] | 1.04 ± 0.05 | 0.557 ± 0.23 |
| SAGGSAGGSAGGPTFEEIKKRNPTDGEIRVISEDGEDLTVEVTFPDGAKARATFPKDALSAGGSAGGSAGGS [r10_612_TrMRF] | 1.05 ± 0.15 | 0.558 ± 0.16 |
| SAGGSAGGSAGGTLGTVRRETEDEVTVEENPVVEPRIARTADGKLVREETERVTVTVSPPSAGGSAGGSAGG [r7_764_JUSTAS] | 1.346 ± 0.011 | 0.805 ± 0.038 |
| SAGEATVEKLEDGYVVVFKDGSVAFLPAVPPAVPVVEIPFKDPEEGRRAVEELGADVLDIGDDSIVVAGSAG [r5_328_TrMRF] | 0.346 ± 0.033 | – |
| SAGGSAMKVKSIHWQRHGDRPMVRIKIQNPDGKKRERNIPMDDPEKFKKEAKELAKEGKIKEIEPYSAGGSA [r15_575_TrROS] | – | < -1 |
| SAGGSAGGSGMTVEERTSPDGTRVEVYLGPGSVVREESPEGVVTVRTLTDGRVEREEVVPVPASAGGSAGGS [r12_451_JUSTAS] | – | < -1 |
| SAGGSAGGSALKPNETATIRILTTAPDGKPYVLVVEVRVLPDGGVEVLGYKLVTLSDLEKNSAGGSAGGSAG [r3_212_TrMRF] | 3.74 ± 0.082 | – |
| SAGSPVTLELRVTRPRADAATGAPATATETVTVTLPAAVVAAGLSPEEIARLLEAANPGATVELTAVASAGG [r19_110_JUSTAS] | 0.259 ± 0.14 | – |
| SAGGSADVVLVEVRPPVLDPEGRPLLTLVLRLPDGGSRTLVVELSDLAGALANLPPNVRVDEIRPLSAGGSA [r15_339_TrMRF] | 2.31 ± 0.035 | – |
| SAGGSAGGSAGDLPPGKEIEIMMSTPEWADEFADNFPNAKIKIEPMPPKPKYDPETGKGYSAGGSAGGSAGG [r17_126_TrROS] | – | < -1 |
| SAGGSAGGSPIMVRVERRDKDGKKKPVPTIPIPINNDDPEEALEWANEIAKKAGARDVRVEIWSAGGSAGGS [r12_569_TrROS] | – | < -1 |
| SAGGSAGGSAGPIVLIKIKNKNGKEIEIEMSLEELKKKLPKELKNMKVEIVEVKEVKVEKSAGGSAGGSAGG [r11_353_TrROS_Hall] | 0.315 ± 0.14 | – |
| SAGGSAGGSAGGFVGTLKDYPKILKAAKEVGLKVGKIDPKNNKIYVDPSNPEKLKKAIESSAGGSAGGSAGG [r7_285_TrMRF] | – | < -1 |
| NWVVWAKLTNPEEGERKTYEVPVPPGEEPTEEEILDQAKDMLGRPKEDLRKNVEIEPYPENGWAEIEIRIRS [r1_285_TrROS] | – | < -1 |
| SAGGSAGGSAMPKTTVYTIPYESDEEAEARIEEIKAEARARNPEAKVTVTPAGESVNVTIVGSAGGSAGGSA [r18_469_JUSTAS] | -0.116 ± 0.19 | – |
| SAGEPPEVVIEVRVERREDGTVRVTVRIRNRDGEEVLEVTVELRREDEEEARRRALEEARRLAEELAASAGG [r19_13_TrROS_Hall] | 3.08 ± 0.32 | – |
| SAGMFVKIKFKTADKTVEELVKKIKEETGIPENAKITVIAEKSEDEGFVVIIEFDEEEVRDKIKEIVGSAGG [r19_215_TrMRF] | 1.35 ± 0.062 | – |
| SAGGSAGGSAGEIEIEFEPGEEFLDFIKNLPGPIESIEIEPIDPDKVRARLKLNIPEDLASAGGSAGGSAGG [r11_143_TrMRF] | – | < -1 |
| SANKNFYIIQIKWEIDGPDGRTLSFMIIVPRDDPDEFLKEAKDFIAEEFGYPIKKIEVDIHRIPPEDFPSAG [r14_104_TrROS] | 3.16 ± 0.07 | – |
| SAGSAAIKALLEKHPKPEVIEVTRLPGSGTLVIKVDDEDHVVPTPPGGFTETLTVDENGNVLSVEPHPASAG [r5_329_JUSTAS] | 1.65 ± 0.064 | – |
| SAGGSAGGSAGVTDPNSSKPVPSSYVVVTVRGPEKESYYRVPPSEAAAFAAARGVEVILESAGGSAGGSAGG [r17_109_JUSTAS] | – | < -1 |
| SAGGSAGGMPESAPPVPLPTSTVPLSEARAAGIEVPPGSERVIRTPSGVTYRISSATGTVTVVGSAGGSAGG [r6_275_JUSTAS] | – | < -1 |
